The text below walks through data of publication PMC9143880, “Improving Antimicrobial Activity and Physico-Chemical Properties by Isosteric Replacement of 2-Aminothiazole with 2-Aminooxazole” (Pharmaceuticals, 2022).

This assay has as its system Klebsiella pneumoniae CCM 4415 (ATCC 10031). In words: Antibacterial microdilution broth (EUCAST). Format: cell-based. As to conditions: internal quality control, 95% growth inhibition, 530 nm, 24 h, read-out: MIC (spectrophotometric detection).

Each structure is given as a SMILES string. ≈ marks a conversion by molar mass, not a printed value.

Turning to `O=C(O)c1cn(C2CC2)c2cc(N3CCNCC3)c(F)cc2c1=O` [CIP, ciprofloxacin, reference compound], the minimal inhibitory concentration (MIC) (usually the least concentration at which growth counts as inhibited) came to 0.064 µg/mL (≈ 0.193 µM).
